Data reported in PubChem BioAssay AID256 (DTP/NCI, 2004).
The list is a part of this screen's results and no random one: it is rich in T/C values a quarter to a half above the control, in often repeated tests (any T/C) and in doses without a T/C. Further doses and runs are listed elsewhere. T/C gives the treated animals as a percentage of the vehicle group. Some entries give survivors of the animals treated and no T/C: the source files T/C as zero there, which appears to mark a toxic dose or a test without result, not a measured value. Some doses without a T/C left all or most animals alive at the check, yet need not have been tolerated: survival well below the control is almost never listed, so the zero probably covers shortened survival too. Survivors were counted at the toxicity check, usually on the fifth day, unless a day is given; later deaths do not show. Schedule codes are those of the source, taken here to give the interval after Q, in days (D) or hours (H), and the number of doses after X. Some entries were tested several times; the values are given in rising order. Some structures stand for samples that the source files as different forms (salt, stereo form or complex); doses refer to the form tested. Where survival is the endpoint, this PubChem deposit counts one and a half times the control or more as active, and values a quarter to a half above the control carry no call in these data; other NCI protocols may use other cut-offs. Marks such as (2×) say how often a value occurs here.

System: CD2F1 mice, L1210 leukemia ip, survival T/C
Assay: NCI In Vivo Anticancer Drug Screen. Data for tumor model L1210 Leukemia (intraperitoneal) in CD2F1 (CDF1) mice
Conditions: T/C endpoint: mean survival time, higher T/C = longer survival
Method in brief: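 Each value reflects a quotient of treated over vehicle control outcomes in mice with a transplanted tumor.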

[1] = dose: 100.0 mg/kg/injection, schedule: Q01DX001 (ip), vehicle: saline with Tween-80
[2] = dose: 200.0 mg/kg/injection, schedule: Q01DX001 (ip), vehicle: saline with Tween-80
[3] = dose: 400.0 mg/kg/injection, schedule: Q01DX001 (ip), vehicle: saline with Tween-80
[4] = dose: 200.0 mg/kg/injection, schedule: Q04DX003 (ip), vehicle: saline
[5] = dose: 400.0 mg/kg/injection, schedule: Q04DX003 (ip), vehicle: saline with Tween-80
[6] = dose: 100.0 mg/kg/injection, schedule: Q01DX009 (ip), vehicle: saline with Tween-80

Question: Which survivor count [1] does the source give for Cc1cccc(C2=NCCN2)c1C here?
Answer: 0 of 6

Question: And the survivor count [2]?
Answer: 0 of 6

Question: What about the survivor count [3] of the same compound?
Answer: 0 of 6

Question: For CCCCC(CSC#N)SC#N (stereo not given), which survivor count (dose: 25.0 mg/kg/injection, schedule: Q04DX002 (ip), vehicle: saline with Tween-80) is on record?
Answer: 0 of 3 and 1 of 3

Question: And the survivor count (dose: 50.0 mg/kg/injection, schedule: Q04DX002 (ip), vehicle: saline with Tween-80)?
Answer: 0 of 3

Question: And the survivor count (dose: 100.0 mg/kg/injection, schedule: Q04DX002 (ip), vehicle: saline with Tween-80)?
Answer: 0 of 3

Question: Which survivor count [4] does the source give for CC1(C)COC(=O)N1 here?
Answer: 6 of 6

Question: What about the survivor count (dose: 300.0 mg/kg/injection, schedule: Q01DX009 (ip), vehicle: saline with Tween-80) of the same compound?
Answer: 0 of 6

Question: And the survivor count (dose: 400.0 mg/kg/injection, schedule: Q04DX003 (ip), vehicle: saline)?
Answer: 0 of 6

Question: CC1=CC(C)(N=[N+]=[N-])CC(C)(C)C1 (stereo not given) was tested. Which survivor count (dose: 150.0 mg/kg/injection, schedule: Q01DX009 (ip), vehicle: saline) did it give?
Answer: 0 of 6

Question: How did the T/C (dose: 10.0 mg/kg/injection, schedule: Q01DX001 (ip), vehicle: saline) turn out when CS(=O)(=O)OCCCN(CCCOS(C)(=O)=O)CCCN1CCOCC1 was run?
Answer: 135 % of control

Question: And the T/C (dose: 10.0 mg/kg/injection, schedule: Q01DX005 (ip), vehicle: saline)?
Answer: 129 % of control

Question: And the T/C (dose: 10.0 mg/kg/injection, schedule: Q02DX003 (ip), vehicle: saline)?
Answer: 142 % of control

Question: What about the T/C (dose: 10.0 mg/kg/injection, schedule: Q04DX003 (ip), vehicle: saline) of the same compound?
Answer: 144 % of control

Question: And the T/C (dose: 25.0 mg/kg/injection, schedule: Q01DX001 (ip), vehicle: saline)?
Answer: 126 % of control

Question: What about the T/C (dose: 25.0 mg/kg/injection, schedule: Q01DX009 (ip), vehicle: saline) of the same compound?
Answer: 135 % of control

Question: What about the T/C (dose: 25.0 mg/kg/injection, schedule: Q04DX003 (ip), vehicle: saline) of the same compound?
Answer: 137 % of control

Question: And the T/C (dose: 40.0 mg/kg/injection, schedule: Q04DX003 (ip), vehicle: saline)?
Answer: 140 % of control

Question: What about the T/C (dose: 50.0 mg/kg/injection, schedule: Q01DX001 (ip), vehicle: saline) of the same compound?
Answer: 144 % of control

Question: What about the T/C (dose: 125.0 mg/kg/injection, schedule: Q01DX009 (ip), vehicle: saline) of the same compound?
Answer: 144 % of control

Question: Which survivor count (dose: 100.0 mg/kg/injection, schedule: Q04DX003 (ip), vehicle: saline) does the source give for CC(=O)C(Cl)C(C)=O.CC(=O)C(Cl)C(C)=O.CO.CO.[Ni] here?
Answer: 2 of 6

Question: And the survivor count [4]?
Answer: 0 of 6

Question: O=[N+]([O-])c1ccc(Sc2ccc([N+](=O)[O-])cc2)cc1 was tested. Which survivor count [5] did it give?
Answer: 6 of 6

Question: CN(C)N=Nc1cccc([N+](=O)[O-])c1 was tested. Which survivor count (dose: 177.0 mg/kg/injection, schedule: Q01DX009 (ip), vehicle: Klucel (hydroxypropylcellulose) (HPC)) did it give?
Answer: 3 of 6

Question: What about the survivor count (dose: 266.0 mg/kg/injection, schedule: Q01DX009 (ip), vehicle: Klucel (hydroxypropylcellulose) (HPC)) of the same compound?
Answer: 0 of 6

Question: What about the survivor count (dose: 400.0 mg/kg/injection, schedule: Q01DX009 (ip), vehicle: Klucel (hydroxypropylcellulose) (HPC)) of the same compound?
Answer: 0 of 6

Question: What does the source list for O=C(c1ccccc1[N+](=O)[O-])C(Br)C(Br)c1ccc(Cl)c(Cl)c1 (stereo not given)?
Answer: survivor count (dose: 50.0 mg/kg/injection, schedule: Q01DX009 (ip), vehicle: saline with Tween-80): 3 of 3; T/C [6]: 91 and 95 % of control (2×); survivor count [6]: 3 of 3; survivor count (dose: 200.0 mg/kg/injection, schedule: Q01DX009 (ip), vehicle: saline with Tween-80): 0 of 3 and 4 of 6; survivor count [3]: 3 of 6; survivor count (dose: 400.0 mg/kg/injection, schedule: Q01DX009 (ip), vehicle: saline with Tween-80): 0 of 6 and 1 of 3; survivor count [5]: 1 of 6

Question: For C/C=C1/C[N+]2(C)CCC34C(=C(C(=O)OC)C1CC32)Nc1ccc(O)cc14 (stereo not given), which survivor count [1] is on record?
Answer: 1 of 6

Question: What about the survivor count [2] of the same compound?
Answer: 0 of 6

Question: And the survivor count [3]?
Answer: 0 of 5

Question: For C=CC1CN2CCC1CC2C(O)c1ccnc2ccccc12 (stereo not given) (tested in a mixture with another compound), which survivor count (dose: 200.0 mg/kg/injection, schedule: Q04DX003 (ip), vehicle: saline with Tween-80) is on record?
Answer: 5 of 6

Question: What about the survivor count [3] of the same compound?
Answer: 1 of 6

Question: What about the survivor count [5] of the same compound?
Answer: 5 of 6

Question: With C=C1C(O)C2(O)OCC34C(CC5C(C)=CC(=O)C(O)C5(C)C23)OC(=O)C(OC(=O)C(C)(O)CC)C14 (stereo not given) as the compound, how does the survivor count (dose: 4.0 mg/kg/injection, schedule: Q01DX009 (ip), vehicle: saline + alcohol) read?
Answer: 0 of 6
